Structures can show the parent of a compound that is named as a salt. The list shows a part of the results. The calls rarely recur for the same compound in another form.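 In K562 cells expressing nanoluciferase-fused kinases, luminescence was recorded at 4 h intervals between 2 and 18 h, normalized as percent of control with DMSO at 100% and a positive control at 0%. A significant (2 sigma) signal drop marks a time point as decreased. The authors' rule for a hit is not shown and takes in more than the number of time points.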

Chains of the proteins cited; added tags and fusions are not shown. Lines headed by an entry give the natural chain unless they say otherwise; changes in a name come on top.
UniProt P51813: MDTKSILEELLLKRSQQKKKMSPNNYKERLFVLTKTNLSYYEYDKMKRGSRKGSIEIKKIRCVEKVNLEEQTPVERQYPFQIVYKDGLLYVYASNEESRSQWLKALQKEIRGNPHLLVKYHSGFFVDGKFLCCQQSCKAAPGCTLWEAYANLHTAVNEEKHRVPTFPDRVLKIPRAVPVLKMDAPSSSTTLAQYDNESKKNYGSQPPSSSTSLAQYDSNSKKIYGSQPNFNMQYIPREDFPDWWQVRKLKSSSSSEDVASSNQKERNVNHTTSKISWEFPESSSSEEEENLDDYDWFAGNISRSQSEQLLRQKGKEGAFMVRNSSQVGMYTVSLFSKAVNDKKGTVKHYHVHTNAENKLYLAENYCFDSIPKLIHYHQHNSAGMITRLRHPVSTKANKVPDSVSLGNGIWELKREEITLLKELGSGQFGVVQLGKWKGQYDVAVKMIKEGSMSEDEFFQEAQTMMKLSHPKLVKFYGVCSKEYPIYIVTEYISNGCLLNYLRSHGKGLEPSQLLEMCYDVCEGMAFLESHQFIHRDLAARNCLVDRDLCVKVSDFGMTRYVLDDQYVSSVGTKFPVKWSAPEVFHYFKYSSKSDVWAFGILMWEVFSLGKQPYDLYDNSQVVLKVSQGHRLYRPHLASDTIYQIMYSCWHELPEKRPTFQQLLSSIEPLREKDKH

The target in the test is BMX (UniProt P51813). The test can be described thus: number of time points (of 5) at which kinase-Nluc abundance scored as decreased, DMSO-normalised (count); higher = more persistent destabilization. The following applies: K562; 2-18 h.
As to `CN1CC[C@@H](c2c(O)cc(O)c3c(=O)cc(-c4ccc(C(F)(F)F)cc4Cl)oc23)[C@@H]1CO` [Voruciclib (hydrochloride)] (10 µM), the “number of time points” value was 0. Then `O=c1cc(-c2cccc3c2Sc2ccccc2S3)oc(N2CCOCC2)c1` (10 µM), with 0; and `O=[N+]([O-])c1ccc(Nc2nc(N3CCOCC3)nc(N3CCOCC3)n2)cc1` (10 µM), with 0; and `c1ccc(-c2nc(=NCCN3CCOCC3)sn2-c2ccccc2)cc1` [VP3.15 (dihydrobromide)] (10 µM), with 0. Then `Nc1nc(N)c2nc(-c3cccc(O)c3)cnc2n1` (10 µM), with 0; and `Nc1ncnc2c1c(-c1ccc(Oc3ccccc3)cc1)nn2C1CCN(CCOCCOCCOc2ccc3c(c2)CN(C2CCC(=O)NC2=O)C3=O)CC1` (stereo not drawn) (2.5 µM), with 0.

As to `C=CC(=O)N1C[C@H](COc2nc(Nc3cnn(C)c3)nc3[nH]cc(Cl)c23)[C@@H](OC)C1` (2.5 µM), the “number of time points” value was determined as 0.

Regarding `Cc1nn(C)c2c1C(c1ccc(C(F)(F)F)cc1)C(C#N)=C(N)O2` (stereo not drawn) (10 µM), the “number of time points” value was 0. Then `O=C(NC1CCOCC1)c1ccc(-c2cc(-c3c[nH]nc3-c3ccccn3)ccn2)cc1` (10 µM), with 0; and `CC/C(=N\NC(=O)c1ccnc(NCCCN2CCOCC2)c1)c1ccc(Cl)cc1O` (2.5 µM), with 0; and `COc1cc(N2CCOCC2)ccc1Nc1ncc(Cl)c(Nc2ccccc2NS(C)(=O)=O)n1` (2.5 µM), with 0. With `Cn1cnc([N+](=O)[O-])c1C[N+](C)(C)C/C=C/C(=O)Nc1cc2c(Nc3ccc(Cl)c(Br)c3)ncnc2cn1` [Tarloxotinib (bromide)] (10 µM) the figure was 0; with `O=C(Nc1cccc(C(F)(F)F)c1)c1cccc2cc(Oc3cc(CO)ncn3)ccc12` (10 µM), 0. Then `Oc1ccc(/C=C/c2cc(O)cc(O)c2)cc1` [Resveratrol] (10 µM), with 0; and `O=c1[nH]c(C2CCCN2)nc2c1oc1ccc(Cl)cc12` (stereo not drawn) [XL413 (hydrochloride)] (10 µM), with 0; and `CN(c1ccc(NC(=O)Nc2ccc(OC(F)(F)F)cc2)cc1)c1ccnc(Nc2cccc(S(N)(=O)=O)c2)n1` (2.5 µM), with 3.

For the compound `C=C[C@@](C)(/C=C/c1ccc(O)cc1)CCC=C(C)C` [Bakuchiol] (10 µM), the “number of time points” value stood at 0. With `COc1cc2ncnc(-n3nc(-c4ccccn4)nc3N)c2cc1OC` (10 µM) the figure was 4.

In the case of `CNc1nc(Nc2ccc(C(=O)N3CCOCC3)cc2OC)ncc1Cl` (2.5 µM), the “number of time points” value turned out to be 0. Then `CC(C)S(=O)(=O)c1ccc2nccc(Nc3ccc4scnc4c3)c2c1` (10 µM), with 0; and `CC(C)(O)[C@H]1CC[C@H](Nc2ccc3ncc(-c4cccc(C(F)(F)F)c4)n3n2)CC1` (10 µM), with 0; and `CCN(CC)c1ccc2cc(-c3nc4cc(C)ccc4o3)c(=O)oc2c1` (10 µM), with 0. With `CN(C)S(=O)(=O)c1ccc2c(c1)/C(=C/c1cc3c([nH]1)CCCC3)C(=O)N2` (2.5 µM) the figure was 0; with `C=CC(=O)Nc1cc(Nc2nccc(-n3cc(CN(C)C)c(-c4ccccc4)n3)n2)c(OC)cc1N1CCOCC1` [Lazertinib] (10 µM), 0. With `Cc1ccc2c(Nc3cccc(Cl)c3F)nccc2c1NC(=O)c1csc2c(N)ncnc12` [Belvarafenib] (10 µM), the “number of time points” value stood at 0.

As for `Oc1cc(O)c2c(c1)OC1(c3ccc(O)c(O)c3)Oc3cc(O)c4c(c3C2C1O)OC(c1ccc(O)c(O)c1)C(O)C4` (stereo not drawn) [Procyanidin A1] (10 µM), the “number of time points” value is 0.

Regarding `c1ccc(-c2nc3c(c(-n4ccc5cnccc54)n2)CCC3)nc1` (10 µM), the “number of time points” value worked out at 0. With `Cc1cc(C)nc(NS(=O)(=O)c2ccc(NC(=S)NC(=O)COc3ccc(Br)cc3Cl)cc2)n1` (2.5 µM) the figure was 0. For the compound `Cc1ccc(NC(=O)c2ccc(CN(CCN(C)C)C(=O)c3cccnc3)cc2)cc1Nc1nccc(-c2cccnc2)n1` [PDGFRα kinase inhibitor 1] (10 µM), the “number of time points” value worked out at 0.

Consider `C[C@H](Nc1ncnc2[nH]cnc12)c1cc2ccc(F)cc2nc1-c1ccccn1` (10 µM), for which the “number of time points” value was found to be 0. On to `CN(C)CCC=C1c2ccccc2CCc2ccccc21` [Amitriptyline (hydrochloride)] (2.5 µM), for which the “number of time points” value amounted to 0.

Take `O=C1/C(=C\c2ccc(Cl)cc2)C=C(c2ccccc2)N1c1ccc(O)cc1` (2.5 µM): the “number of time points” value is 0. `C[C@@H]1CCNC(=O)c2cc3ccc(C(=O)Nc4nc5ccccc5n4CCCN(C)C)cc3n21` (10 µM): the “number of time points” value amounted to 0.

Take `COc1c(Nc2cc(C)[nH]n2)nc(Sc2ccc(S(=O)(=O)Cc3cccc([N+](=O)[O-])c3F)cc2F)nc1N1CCCCC1` [Centrinone-B] (2.5 µM): the “number of time points” value was 0. For the compound `COc1ccc(/C=C/C(=O)C2(C(=O)/C=C/c3ccc(OC)c(OC)c3)CCCCC2)cc1OC` (2.5 µM), the “number of time points” value stood at 0. As to `CN(C)c1nc2c(Br)c(Br)c(Br)c(Br)c2[nH]1` (10 µM), the “number of time points” value came out at 0.

For `O=C(Nc1nc(=O)n(Cc2ccc(Cl)cc2)s1)c1ccc(Cl)cc1` (10 µM), the “number of time points” value worked out at 0. Consider `Nc1n[nH]c2nc(-c3ccc(NS(=O)(=O)c4cc(Cl)ccc4F)cc3)cnc12` (10 µM), for which the “number of time points” value worked out at 0.

Values taken from the supplement of paper PMC12823440, “Inhibitors supercharge kinase turnover through native proteolytic circuits” (Nature, 2025).
